{
  "source": "paper doi:10.1101/2021.07.20.453058",
  "about": "(bioRxiv, 2021)",
  "biological_target": "T1, FLAG-KaiC1 (Synechocystis sp. PCC 6803) (UniProt P74646)",
  "T1 sequence": "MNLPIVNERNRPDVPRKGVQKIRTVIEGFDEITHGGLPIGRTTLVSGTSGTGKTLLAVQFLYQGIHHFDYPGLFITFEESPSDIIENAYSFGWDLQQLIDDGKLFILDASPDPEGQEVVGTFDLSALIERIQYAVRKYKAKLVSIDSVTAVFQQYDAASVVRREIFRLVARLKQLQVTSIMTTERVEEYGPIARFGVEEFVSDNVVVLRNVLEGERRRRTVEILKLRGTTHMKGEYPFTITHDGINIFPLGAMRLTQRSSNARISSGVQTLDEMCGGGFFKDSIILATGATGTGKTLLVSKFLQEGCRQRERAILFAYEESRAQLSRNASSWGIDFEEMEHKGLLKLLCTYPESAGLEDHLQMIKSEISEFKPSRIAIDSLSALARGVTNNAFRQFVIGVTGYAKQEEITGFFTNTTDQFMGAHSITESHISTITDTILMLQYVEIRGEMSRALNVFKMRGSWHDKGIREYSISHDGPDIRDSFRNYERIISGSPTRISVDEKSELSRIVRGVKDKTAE",
  "assay": "affinity purification with mass spectrometry",
  "note": "No constants are given. Whether binding was seen depends on the method and setting. Binding seen in cells or lysates may run through a third protein. These calls come from enrichment with a bait or labelling near it, and not all partners need be listed. A no says only that the protein was not detected with the bait. Tags and fused reporters may be left off the sequences shown.",
  "data": [
    {"substance": "KaiA3 (Sll0485), endogenous", "values": [
      {"measurement": "binding", "value": "no binding"}
    ]}
  ]
}
